This passage reports binding signal results from publication PMC5996148.

Protein sequences, listed by entry. Tags and fused reporters are not part of them. Lines headed by an entry give the natural chain unless they say otherwise; changes in a name come on top.
UniProt Q8IXJ9: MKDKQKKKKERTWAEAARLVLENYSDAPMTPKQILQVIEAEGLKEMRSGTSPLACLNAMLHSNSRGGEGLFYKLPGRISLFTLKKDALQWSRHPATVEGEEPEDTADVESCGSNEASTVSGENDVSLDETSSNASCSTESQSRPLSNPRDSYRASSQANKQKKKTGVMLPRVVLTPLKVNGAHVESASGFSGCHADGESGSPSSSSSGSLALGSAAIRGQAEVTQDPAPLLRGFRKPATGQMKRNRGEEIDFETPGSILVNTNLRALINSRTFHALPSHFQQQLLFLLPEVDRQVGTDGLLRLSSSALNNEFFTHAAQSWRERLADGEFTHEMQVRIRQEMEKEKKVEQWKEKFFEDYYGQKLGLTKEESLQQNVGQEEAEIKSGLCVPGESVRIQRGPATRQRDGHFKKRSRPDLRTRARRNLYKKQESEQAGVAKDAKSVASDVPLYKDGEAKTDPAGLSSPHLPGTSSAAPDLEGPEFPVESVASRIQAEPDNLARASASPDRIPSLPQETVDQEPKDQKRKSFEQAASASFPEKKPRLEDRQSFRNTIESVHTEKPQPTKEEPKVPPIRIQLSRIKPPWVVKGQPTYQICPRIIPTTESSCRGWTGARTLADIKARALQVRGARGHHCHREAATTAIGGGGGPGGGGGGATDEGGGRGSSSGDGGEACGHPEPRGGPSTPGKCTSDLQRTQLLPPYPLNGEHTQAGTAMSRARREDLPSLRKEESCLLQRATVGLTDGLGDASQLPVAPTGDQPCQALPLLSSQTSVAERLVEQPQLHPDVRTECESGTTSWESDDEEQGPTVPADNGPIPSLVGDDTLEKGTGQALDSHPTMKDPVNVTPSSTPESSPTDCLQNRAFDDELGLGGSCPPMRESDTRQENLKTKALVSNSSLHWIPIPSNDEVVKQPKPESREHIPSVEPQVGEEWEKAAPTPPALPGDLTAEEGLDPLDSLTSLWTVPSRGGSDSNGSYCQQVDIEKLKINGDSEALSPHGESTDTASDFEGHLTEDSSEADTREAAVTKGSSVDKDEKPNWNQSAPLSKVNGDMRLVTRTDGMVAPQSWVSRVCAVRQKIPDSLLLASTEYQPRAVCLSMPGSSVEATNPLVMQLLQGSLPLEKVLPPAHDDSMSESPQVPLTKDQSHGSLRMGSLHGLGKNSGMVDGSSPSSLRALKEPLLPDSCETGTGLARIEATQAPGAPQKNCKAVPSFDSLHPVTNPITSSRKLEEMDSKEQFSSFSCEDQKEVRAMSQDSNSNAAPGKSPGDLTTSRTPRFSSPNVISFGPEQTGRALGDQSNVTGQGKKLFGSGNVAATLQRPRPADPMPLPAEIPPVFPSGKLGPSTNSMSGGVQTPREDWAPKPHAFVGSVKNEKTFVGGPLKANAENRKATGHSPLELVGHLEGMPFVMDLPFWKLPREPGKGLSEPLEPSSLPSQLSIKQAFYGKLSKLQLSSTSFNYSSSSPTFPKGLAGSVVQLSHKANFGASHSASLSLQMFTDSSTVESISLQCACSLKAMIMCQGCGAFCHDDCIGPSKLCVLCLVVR

Some of the results follow. For some of these results: The exact form of the protein is not confirmed.

Some test systems named below: ASB13 (human); ASB6 (human); ASMTL (human); ATF2 (human); ATF3 (human); ATG10 (human); ATG4A (human); ATG7 (human).
Common to all, as to test: protein microarray (ProtoArray v5.0), streptavidin-Alexa Fluor 647
Holding throughout (settings): 3'-biotin; 20 mM Tris (pH 7.5), 5 mM MgCl2, 100 mM KCl, 0.1% Tween-20, A/T-rich and random oligonucleotide blockers; temperature not stated; high values mean tight binding

The next test deals with T1, ASNS (UniProt P08243).
T1 sequence: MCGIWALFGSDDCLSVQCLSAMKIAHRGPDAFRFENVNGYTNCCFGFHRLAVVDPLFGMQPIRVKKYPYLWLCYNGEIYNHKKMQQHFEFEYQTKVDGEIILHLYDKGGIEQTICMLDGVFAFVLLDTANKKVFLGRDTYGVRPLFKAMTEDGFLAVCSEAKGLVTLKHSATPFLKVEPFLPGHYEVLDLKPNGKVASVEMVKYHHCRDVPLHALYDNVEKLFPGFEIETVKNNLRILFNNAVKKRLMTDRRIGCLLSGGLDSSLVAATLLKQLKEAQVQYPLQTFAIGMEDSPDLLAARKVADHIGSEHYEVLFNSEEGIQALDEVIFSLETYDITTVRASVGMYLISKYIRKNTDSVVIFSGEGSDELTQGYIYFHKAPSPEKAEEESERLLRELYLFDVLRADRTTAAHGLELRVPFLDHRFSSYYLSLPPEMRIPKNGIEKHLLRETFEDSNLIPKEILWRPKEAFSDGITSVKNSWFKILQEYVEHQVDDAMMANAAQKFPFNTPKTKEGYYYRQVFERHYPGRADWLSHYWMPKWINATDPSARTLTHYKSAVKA

Another test deals with ASXL1 (UniProt Q8IXJ9).

Consider “GGGGACAGGGGTATGGGGAGGGG [G4-3 biotinylated (CtG)]”, for which the binding signal is -0.309 z-score in the test on ASB13 (human); -0.329 z-score in the test with ASB6 (human); -0.332 z-score in the test with ASMTL (human); -0.339 z-score with ASNS; 9.22 z-score with ASXL1; -0.32 z-score in the test on ATF2 (human). Moreover, the binding signal in the test on ATF3 (human) is -0.317 z-score; in the test with ATG10 (human), -0.32 z-score; with ATG4A (human), -0.343 z-score; in the test on ATG7 (human) it was -0.289 z-score.
